Measured values as given in PubChem BioAssay AID1347426 (Functional Genomics Laboratory (NCATS/FGL), 2020).
Out of some 31,000 sequences screened, about 1,400 (4.5%) were called active.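 How the source made its calls: active means median seed-adjusted z-score above 1 or below -1; inactive means the rest.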 The list shows a part of the results.

Test: Novel Modifiers of Survival Motor Neuron (SMN) Protein: Gene Identification via Genome-wide siRNA Screen;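 further: luminescence tracks full-length SMN protein made from the SMN2 reporter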
Details: HEK293T SMN2-luciferase reporter, siRNA knockdown, 72 h; actives lie on both sides
Method in brief: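 HEK293T cells stably carrying an SMN2 promoter/splicing cassette–luciferase reporter were reverse-transfected with 1 pmol siRNA per well (druggable-genome library, 3 siRNAs per gene) and grown 72 h at 37 °C. Luminescence, normalized to negative-control siRNA and log10-transformed, was scored as MAD.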

Sequence	median seed-adjusted z-score
GAAAGAUUCCGAACAAUCATT against RAB8B	inactive: -0.259
GAAUGGAGAGAGAAUUGAATT against B2M	inactive: -0.367
CAGCUGGACGGGAAAGUGATT against GZMM	inactive: -0.17
CAGACAAGCUGAUCCGCAUTT against TGM5	inactive: 0.0181
CACCCACGAUGAGCACUGUTT against PHF21B	inactive: 0.327
CAUGAUCGAUUUGAUUAUATT against CYP2C18	inactive: 0.229
GGCCUUCCAUCAUAGUUCATT against ZNF311	inactive: 0.196
GGAUGACUUUUCUCGUCUATT against SAP30BP	inactive: -0.257
GGAGCAGAUUAAGCGAGUATT against NRAS	inactive: -0.581
GAGCAGGGCUAAAUAAAGATT against AANAT	inactive: -0.168
CUCCUGAUGUUGGAUAUAATT against PITRM1	inactive: -0.0959
GGCGGAAAUUCGUACAGAUTT against MGAT5	inactive: 0.16
GGAUGAUGAGUACUCUGAATT against COL7A1	active: 1.08
GGACUUAAACUGCUUACAATT against SSRP1	inactive: -0.31
GGCCUUUACUCGAGUCAAUTT against ZNF331	inactive: 0.415
CCACAAUGAGAGUACCUGUTT against AGT	inactive: -0.121
GAAGAGGAGGUUUAAGCAATT against RASL11B	inactive: 0.507
ACCUCGCUGUGUCACUCAUTT against ZDHHC12	inactive: -0.0312
CUGUUUGACUUCAUCGAGATT against COPG	inactive: 0.175
GGAUGUGAGAAUUCGGAAATT against PHC3	inactive: -0.204
CAAACUCUACAUCACCUUUTT against GPR32	active: -1.2
GGAUGAAAAACAGAUUACATT against CD200R1	inactive: 0.0679

Another view of some results above:
Sequence | median seed-adjusted z-score
CACCCACGAUGAGCACUGUTT against PHF21B | inactive: 0.327
CAUGAUCGAUUUGAUUAUATT against CYP2C18 | inactive: 0.229
GGCCUUCCAUCAUAGUUCATT against ZNF311 | inactive: 0.196

Going on with the list.

Sequence	median seed-adjusted z-score
ACACUUUGUUCAACCUGCATT against EVX2	inactive: 0.181
GCUGCGUUUCUACAACAAATT against SLC37A3	inactive: 0.246
CACUUGGACUAGCUCAAUATT against THRB	inactive: 0.324
GAGAAAUCGUGCUCAGUUATT against CNOT8	inactive: 0.375
GUAUUUCGAGUAAGUCUAATT against TTPA	inactive: -0.208
CCAUCAACACUGAAUUGCATT against SEC22B	inactive: -0.106
GAAAACCAAUCUAAACAUUTT against ZNF33A	inactive: 0.0628
CAUUAGCAGUUGUCCCGUUTT against P2RY10	inactive: -0.432
CCGCAGCAUCUAUUUCUCATT against MPG	inactive: -0.0888
CUCACAACAAAUUACUUAATT against CYP2C9	inactive: 0.246
GGGUCUAUAUGCAUCCGGATT against TBR1	inactive: -0.388
CAACCGAAAUUUGAAAGAATT against SOX13	inactive: 0.867
GACCUUCAGCUAUCACUCUTT against ZNF80	inactive: 0.906
UCCUGACCGUCAUAGAGCATT against NEDD9	inactive: 0
CUACGACACGGAUCAAGGATT against FN3KRP	inactive: 0.00247
GGCUGAUUUUGCAGAGUUATT against PRCP	inactive: -0.481
CAAGAUCCAUAAACUUUUATT against TSSK1B	inactive: -0.169
CCAAAGACUCCAUCCAGAATT against DCI	inactive: 0.469
ACAUCAUCUCAGUGGUUUATT against RNASE8	inactive: 0.00771
GUUAUGCACUUUACCCUUUTT against ARL15	inactive: -0.944
CCACAAGCGUACUCAUACATT against ZIC5	inactive: 0
UAGACGUCUUUUCCCGAUATT against S100P	inactive: -0.00831

Sequence	median seed-adjusted z-score
CCGGUCAUGUCCAAAGUAATT against HDAC1	inactive: -0.61
CUACCCAACAAGAACCAGATT against ECEL1	inactive: -0.301
AGGAUUACCUCGCCCUGAATT against HLA-G	inactive: 0.0348
GUGAUACCCAAGAAACAUATT against HINT1	inactive: 0.873
CCAACCCAACACUAACUAATT against PEX13	inactive: 0
CUGUUGAAAUGUAAAACGATT against VNN1	inactive: 0.549
CCACACCAGUCAGAGUCAATT against ZNF497	inactive: -0.33
CAGUGCUGUUAGAAUAAAATT against ZNHIT1	inactive: -0.497
CGUCGUUCAGCAUCGAGAATT against FOXD3	inactive: 0.224
CCAAGGAGCUUACUAUGGATT against SETDB2	inactive: 0.417
GCACCUUCAUCGCAACAAUTT against AATK	inactive: -0.621
GAUAGCAACUGAAAACGGATT against SVOP	inactive: 0
GUGUCUUCAUGGUCAACAATT against HTR4	inactive: 0.444
CAAACUUCCAGGACUGCUATT against ABCF3	inactive: 0.0759
ACAGAGACCUGAAAUCCGATT against PINK1	inactive: 0.192
GCACUAUAUGAAUACGCAATT against AUP1	inactive: 0.305
CCUUCAAUCACCGACCUUATT against SYNJ2	inactive: 0.0202
GGCUUACAAUGACAAGAUUTT against HECW2	inactive: 0.38
CAAGUAUCGUGGAUCAAAATT against CD1E	inactive: -0.133
AGAUCAAGUUUGCCCUAAATT against HDGF2	inactive: 0
CAGCUAUUCGGAGUCCAAATT against PVR	inactive: -0.324
GGACCUCAAAGUUGUCUAUTT against AP1S1	active: -1.04

Sequence	median seed-adjusted z-score
GCUGGAUAUUCUCACAAUATT against PDE4B	inactive: 0.546
GCGUCGUUCAUGCUCUAAATT against FGA	inactive: 0.267
CCCUUACCAUGGAUAGCAATT against BDNF	inactive: 0
CCAGAGUCACGGUCGAUCATT against PGPEP1	inactive: -0.0356
CGAGUGAGGUGUACAUUGCTT against CAPN10	inactive: 0.364
ACAUCUUCCUUAUUGUGGATT against HCN2	inactive: 0
GUAUUACCAGAGACCCAUATT against CYP11A1	inactive: 0.0202
CCAUCACCUAUGCUAUUCATT against LHCGR	inactive: -0.152
GAGUCCUAUUACCAGCUCATT against SRM	inactive: 0
UGAGAUAACUCACCACUGUTT against CDC42	inactive: -0.0938
GGUCCCUGUUGAGAAACGATT against TOP1	inactive: 0.0303
CCAUCAUCGUGAACAUCAUTT against SYT7	inactive: -0.762
GGAUAUUACUUUCGUGUAATT against MSH2	inactive: 0
CUUGGAUCCUCACACCAAATT against NID2	inactive: 0.283
CAAUGAGUCAGAUAUCGAATT against WNK1	inactive: -0.121
CCGUGUUAUGGAUCAAUGATT against DHX40	inactive: -0.75
UGAAUGCUGUAGUCCAUUATT against GPR182	inactive: -0.136
GGUGGAAUACUAUCCAGUUTT against COL12A1	inactive: 0.00422
CGGGCACAAUUAUCUCAGATT against SLC9A3	inactive: 0.422
GCAUGGAGCUAGCUGUGGATT against LTK	inactive: -0.0881
GGAGAGACAAUGACCAAGATT against TRPS1	inactive: -0.125
GGACUAUCAGGAUAACAAATT against EIF1AY	inactive: 0.00168

Exported with each value named: entries from further up.
CCCUUACCAUGGAUAGCAATT against BDNF
  median seed-adjusted z-score: inactive: 0
CCAGAGUCACGGUCGAUCATT against PGPEP1
  median seed-adjusted z-score: inactive: -0.0356

(further entries)

Sequence	median seed-adjusted z-score
GGACUUAAGACAAUAGAGATT against SPATA5L1	inactive: 0.252
CCACGUAAAUAAGACCUAUTT against GUCY2C	inactive: -0.0181
UCUGUUCACUGGACAGCAATT against TRPM5	inactive: -0.0565
CGACAUAGAUGACGAAAAATT against PABPC5	inactive: -0.428
CAUCCUCAUUCGAAAGUUUTT against PDCD6	inactive: 0.325
GCUAUAAACUCAACCCGAATT against PXDN	inactive: 0.771
CAGAAGUUGUGCAAUCCAATT against ADAM32	active: 1.75
CAGCCGCUCUCGUCAAUGUTT against GGTLC2	inactive: -0.288
GGACUUUCCUGGAUCCUAUTT against ADAM30	inactive: 0.0576
UGAUAUCUGUGGGAUCAUUTT against IKZF1	inactive: -0.298
GAAUAAUGACGUAUUGUGATT against SNCA	inactive: 0.36
GCAACGAGUUCAACCUGGATT against RAB11B	inactive: -0.857
GGAGCUUCAGAUGAAGAUATT against DNAJB4	inactive: -0.12
GCACAGGACUUCUAUGAGATT against PHKG1	inactive: -0.153
GGAAAUGUUUGAGUUUUCATT against PDX1	inactive: 0
UGAUGAUGCUUUUAAGACATT against SLC6A15	inactive: 0.0939
ACAGAUUAAUUUUUCCAUATT against RAC1	inactive: -0.0348
UGAGGACAAUCAUGAGGAATT against GABARAPL1	inactive: 0.402
AGACUACAACAGGCCCAAATT against ICAM1	inactive: 0.345
UGACCUGUCUGGUUGCACATT against ENG	inactive: -0.254
